{"source": "paper PMC8384837", "details_in_all_cases": "yeast three-hybrid, YBZ-1, SC-Leu-His + 0.5 mM 3-AT, 4 days", "key": {"[1]": {"molecular_target": "T1, PUM1 PUF domain R3-ACF C935A + R936C + Q939F (Homo sapiens) (UniProt Q14671)", "T1 sequence": "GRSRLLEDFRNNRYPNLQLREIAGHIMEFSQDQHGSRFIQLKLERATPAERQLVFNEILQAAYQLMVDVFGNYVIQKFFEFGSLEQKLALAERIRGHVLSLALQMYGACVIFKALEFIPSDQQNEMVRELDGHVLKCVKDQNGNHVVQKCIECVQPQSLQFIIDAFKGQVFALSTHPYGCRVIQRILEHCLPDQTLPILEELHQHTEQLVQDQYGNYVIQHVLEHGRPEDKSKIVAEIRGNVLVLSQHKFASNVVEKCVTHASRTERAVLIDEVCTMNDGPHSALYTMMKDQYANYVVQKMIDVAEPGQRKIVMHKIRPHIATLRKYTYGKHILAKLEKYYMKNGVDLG"}, "[2]": {"molecular_target": "T2, PUM1 PUF domain R3-AKE C935A + R936K + Q939E (Homo sapiens) (UniProt Q14671)", "T2 sequence": "T1 sequence with C109K, F112E"}, "[3]": {"molecular_target": "T3, PUM1 PUF domain R3-APA C935A + R936P + Q939A (Homo sapiens) (UniProt Q14671)", "T3 sequence": "T1 sequence with C109P, F112A"}, "[4]": {"molecular_target": "T4, PUM1 PUF domain R3-CNT R936N + Q939T (Homo sapiens) (UniProt Q14671)", "T4 sequence": "T1 sequence with A108C, C109N, F112T"}, "[5]": {"molecular_target": "T5, PUM1 PUF domain R3-CPG R936P + Q939G (Homo sapiens) (UniProt Q14671)", "T5 sequence": "T1 sequence with A108C, C109P, F112G"}, "[6]": {"molecular_target": "T6, PUM1 PUF domain R3-FCA C935F + R936C + Q939A (Homo sapiens) (UniProt Q14671)", "T6 sequence": "T1 sequence with A108F, F112A"}, "[7]": {"molecular_target": "T7, PUM1 PUF domain R3-FCG C935F + R936C + Q939G (Homo sapiens) (UniProt Q14671)", "T7 sequence": "T1 sequence with A108F, F112G"}, "[8]": {"molecular_target": "T8, PUM1 PUF domain R3-FSG C935F + R936S + Q939G (Homo sapiens) (UniProt Q14671)", "T8 sequence": "T1 sequence with A108F, C109S, F112G"}, "[9]": {"molecular_target": "T9, PUM1 PUF domain R3-GFG C935G + R936F + Q939G (Homo sapiens) (UniProt Q14671)", "T9 sequence": "T1 sequence with A108G, C109F, F112G"}, "[10]": {"molecular_target": "T10, PUM1 PUF domain R3-GPF C935G + R936P + Q939F (Homo sapiens) (UniProt Q14671)", "T10 sequence": "T1 sequence with A108G, C109P"}, "[11]": {"molecular_target": "T11, PUM1 PUF domain R3-GPW C935G + R936P + Q939W (Homo sapiens) (UniProt Q14671)", "T11 sequence": "T1 sequence with A108G, C109P, F112W"}, "[12]": {"molecular_target": "T12, PUM1 PUF domain R3-GRY C935G + Q939Y (Homo sapiens) (UniProt Q14671)", "T12 sequence": "T1 sequence with A108G, C109R, F112Y"}, "[13]": {"molecular_target": "T13, PUM1 PUF domain R3-IRT C935I + Q939T (Homo sapiens) (UniProt Q14671)", "T13 sequence": "T1 sequence with A108I, C109R, F112T"}, "[14]": {"molecular_target": "T14, PUM1 PUF domain R3-LRE C935L + Q939E (Homo sapiens) (UniProt Q14671)", "T14 sequence": "T1 sequence with A108L, C109R, F112E"}, "[15]": {"molecular_target": "T15, PUM1 PUF domain R3-MCG C935M + R936C + Q939G (Homo sapiens) (UniProt Q14671)", "T15 sequence": "T1 sequence with A108M, F112G"}, "[16]": {"molecular_target": "T16, PUM1 PUF domain R3-NAL C935N + R936A + Q939L (Homo sapiens) (UniProt Q14671)", "T16 sequence": "T1 sequence with A108N, C109A, F112L"}, "[17]": {"molecular_target": "T17, PUM1 PUF domain R3-SCD C935S + R936C + Q939D (Homo sapiens) (UniProt Q14671)", "T17 sequence": "T1 sequence with A108S, F112D"}, "[18]": {"molecular_target": "T18, PUM1 PUF domain R3-SRW C935S + Q939W (Homo sapiens) (UniProt Q14671)", "T18 sequence": "T1 sequence with A108S, C109R, F112W"}, "[19]": {"molecular_target": "T19, PUM1 PUF domain R3-VNV C935V + R936N + Q939V (Homo sapiens) (UniProt Q14671)", "T19 sequence": "T1 sequence with A108V, C109N, F112V"}, "[20]": {"molecular_target": "T20, PUM1 PUF domain R3-WCG C935W + R936C + Q939G (Homo sapiens) (UniProt Q14671)", "T20 sequence": "T1 sequence with A108W, F112G"}}, "note": "Substitutions are numbered along the chain they refer to. Some of the results follow.", "data": [{"sequence": "GGCUAGAACUAGUGGAUCCCCCGGCGCCCGGCGGCUCGAGCCCGGGUAAGUGUAAUUAGUCUGCAUGCCGCCGGGCGCCAUGCCUGCAGGUCGACUCUAGAAAACAUG", "values": [{"measurement": "binding signal (log2 enrichment (interaction score))", "setting": "[1]", "value": -1.12}, {"measurement": "binding signal (log2 enrichment (interaction score))", "setting": "[2]", "value": -1.29}, {"measurement": "binding signal (log2 enrichment (interaction score))", "setting": "[3]", "value": -0.72}, {"measurement": "binding signal (log2 enrichment (interaction score))", "setting": "[4]", "value": -0.96}, {"measurement": "binding signal (log2 enrichment (interaction score))", "setting": "[5]", "value": -1.28}, {"measurement": "binding signal (log2 enrichment (interaction score))", "setting": "[6]", "value": -0.65}, {"measurement": "binding signal (log2 enrichment (interaction score))", "setting": "[7]", "value": -1.05}, {"measurement": "binding signal (log2 enrichment (interaction score))", "setting": "[8]", "value": -1.31}, {"measurement": "binding signal (log2 enrichment (interaction score))", "setting": "[9]", "value": -0.56}, {"measurement": "binding signal (log2 enrichment (interaction score))", "setting": "[10]", "value": -0.94}, {"measurement": "binding signal (log2 enrichment (interaction score))", "setting": "[11]", "value": -0.41}, {"measurement": "binding signal (log2 enrichment (interaction score))", "setting": "[12]", "value": -1.26}, {"measurement": "binding signal (log2 enrichment (interaction score))", "setting": "[13]", "value": -0.76}, {"measurement": "binding signal (log2 enrichment (interaction score))", "setting": "[14]", "value": -0.76}, {"measurement": "binding signal (log2 enrichment (interaction score))", "setting": "[15]", "value": -0.58}, {"measurement": "binding signal (log2 enrichment (interaction score))", "setting": "[16]", "value": -0.93}, {"measurement": "binding signal (log2 enrichment (interaction score))", "setting": "[17]", "value": -1.25}, {"measurement": "binding signal (log2 enrichment (interaction score))", "setting": "[18]", "value": -1.11}, {"measurement": "binding signal (log2 enrichment (interaction score))", "setting": "[19]", "value": -1.28}, {"measurement": "binding signal (log2 enrichment (interaction score))", "setting": "[20]", "value": -0.53}]}]}
